Measurements as given in PubChem BioAssay AID248 (DTP/NCI, 2004).
The list is a part of this screen's results and no random one: it gathers tests that were run many times, whatever their T/C, doses with no T/C, and many T/C values between a quarter and a half above the control. Other doses and runs of a compound stand elsewhere. T/C gives the treated animals as a percentage of the vehicle group. Some doses have a count of surviving animals in place of a T/C: the source holds a T/C of zero for them, seemingly a mark for toxic or unscored doses. Some survivor counts are full or nearly so, which does not show that the dose was tolerated: survival well below the control is almost never listed, so the zero probably covers shortened survival too. Counts of survivors are from the toxicity check (mostly the fifth day) where no day follows; animals may have died later. Schedule codes are those of the source, read here as Q, the interval in days (D) or hours (H), X, the number of doses. Some schedules carry Z or #; the key to these is not given. Some doses were run more than once; the results are listed from low to high. Where survival is the endpoint, the PubChem record calls one and a half times the control and up active, and a quarter to a half above the control has no call in these data; cut-offs in other NCI protocols can differ. Some T/C values carry the count of animals alive at the toxicity check (mostly the fifth day); without a count, all were alive then.

Test system: L1210 leukemia ip in BDF1 mice, survival T/C
Test: NCI In Vivo Anticancer Drug Screen. Data for tumor model L1210 Leukemia (intraperitoneal) in B6D2F1 (BDF1) mice
Conditions: T/C endpoint: mean survival time, higher T/C = longer survival
[1] = dose: 300.0 mg/kg/injection, schedule: Q01DX Z (ip), vehicle: saline
[2] = dose: 200.0 mg/kg/injection, schedule: Q01DX009 (ip), vehicle: Klucel (hydroxypropylcellulose) (HPC)
[3] = dose: 400.0 mg/kg/injection, schedule: Q01DX009 (ip), vehicle: Klucel (hydroxypropylcellulose) (HPC)
[4] = dose: 400.0 mg/kg/injection, schedule: Q01DX001 (ip), vehicle: saline
[5] = dose: 400.0 mg/kg/injection, schedule: Q01DX009 (ip), vehicle: saline
[6] = dose: 200.0 mg/kg/injection, schedule: Q04DX003 (ip), vehicle: saline with Tween-80
[7] = dose: 400.0 mg/kg/injection, schedule: Q04DX003 (ip), vehicle: saline with Tween-80
[8] = dose: 200.0 mg/kg/injection, schedule: Q01DX001 (ip), vehicle: saline
[9] = dose: 200.0 mg/kg/injection, schedule: Q01DX009 (ip), vehicle: saline

SMILES: Sc1cc(Cl)c(Cl)cc1Cl
- survivor count (dose: 250.0 mg/kg/injection, schedule: Q01DX Z (ip), vehicle: methylcellulose (MC)): 0 of 6
- survivor count (dose: 400.0 mg/kg/injection, schedule: Q01DX001 (ip), vehicle: saline with Tween-80): 2 of 6

SMILES: O=c1[nH]cc(C(F)(F)F)c(=O)[nH]1
- survivor count (dose: 4.0 mg/kg/injection, schedule: Q01DX Z (oral), vehicle: methylcellulose (MC)): 2 of 6
- survivor count (dose: 8.0 mg/kg/injection, schedule: Q01DX Z (oral), vehicle: methylcellulose (MC)): 2 of 6
- survivor count (dose: 16.0 mg/kg/injection, schedule: Q01DX Z (oral), vehicle: methylcellulose (MC)): 0 of 6
- T/C [1]: 129 % of control

SMILES: Cc1cc(N=NC(=N)N)c(C(C)C)cc1NN=C(N)N
- survivor count (dose: 240.0 mg/kg/injection, schedule: Q01DX Z (ip), vehicle: carboxymethylcellulose (CMC)): 0 of 6
- survivor count (dose: 240.0 mg/kg/injection, schedule: Q01DX Z (oral), vehicle: carboxymethylcellulose (CMC)): 3 of 6
- survivor count (dose: 480.0 mg/kg/injection, schedule: Q01DX Z (ip), vehicle: carboxymethylcellulose (CMC)): 0 of 6

SMILES: CC1=C(CO)C(=O)O[C@@H]([C@@H](C)[C@H]2CC[C@H]3[C@@H]4C[C@H]5O[C@]56[C@@H](O)C=CC(=O)[C@]6(C)[C@H]4CC[C@]23C)C1
- survivor count (dose: 40.0 mg/kg/injection, schedule: Q01DX Z (ip), vehicle: carboxymethylcellulose (CMC)): 2 of 4

SMILES: O=C(O/N=C1\C2CCC(C2)C1Cl)c1ccc([N+](=O)[O-])cc1 (stereo not drawn)
- survivor count (dose: 100.0 mg/kg/injection, schedule: Q01DX009 (ip), vehicle: saline with Tween-80): 1 of 6
- survivor count (dose: 200.0 mg/kg/injection, schedule: Q04DX003 (ip), vehicle: Klucel (hydroxypropylcellulose) (HPC)): 2 of 6
- survivor count (dose: 400.0 mg/kg/injection, schedule: Q04DX003 (ip), vehicle: Klucel (hydroxypropylcellulose) (HPC)): 2 of 6

SMILES: Nc1nc(N)c(N=O)c(Nc2ccc(Br)cc2)n1
- survivor count (dose: 240.0 mg/kg/injection, schedule: Q01DX Z (ip), vehicle: methylcellulose (MC)): 3 of 6
- survivor count (dose: 360.0 mg/kg/injection, schedule: Q01DX Z (ip), vehicle: methylcellulose (MC)): 1 of 6

SMILES: Nc1cc(F)c2c(c1)Cc1cc(F)ccc1-2
- survivor count (dose: 400.0 mg/kg/injection, schedule: Q01DX001 (ip), vehicle: carboxymethylcellulose (CMC)): 0 of 4

SMILES: CC(C)=CCC(CCN1CCCCC1)(C(N)=O)c1cccc2ccccc12 (stereo not drawn)
- survivor count (dose: 100.0 mg/kg/injection, schedule: Q01DX009 (ip), vehicle: Klucel (hydroxypropylcellulose) (HPC)): 0 of 6
- survivor count [2]: 0 of 6
- survivor count [3]: 0 of 6

SMILES: CCc1ccccc1N1CCN(C(=O)c2cc(OC)c(OC)c(OC)c2)CC1
- T/C (dose: 150.0 mg/kg/injection, schedule: Q01DX009 (ip), vehicle: saline): 142 % of control [5 of 6 alive]
- survivor count (dose: 168.0 mg/kg/injection, schedule: Q01DX Z (ip), vehicle: carboxymethylcellulose (CMC)): 6 of 6
- survivor count (dose: 200.0 mg/kg/injection, schedule: Q04DX003 (ip), vehicle: acetone): 3 of 6
- survivor count (dose: 252.0 mg/kg/injection, schedule: Q01DX Z (ip), vehicle: carboxymethylcellulose (CMC)): 3 of 6
- survivor count (dose: 335.0 mg/kg/injection, schedule: Q01DX009 (ip), vehicle: saline): 3 of 6
- survivor count (dose: 378.0 mg/kg/injection, schedule: Q01DX Z (ip), vehicle: carboxymethylcellulose (CMC)): 3 of 6
- survivor count [4]: 1 of 6
- T/C [5]: 135 % of control
- survivor count (dose: 567.0 mg/kg/injection, schedule: Q01DX Z (ip), vehicle: carboxymethylcellulose (CMC)): 0 of 6

SMILES: O=[N+]([O-])c1ccc(OCc2ccccc2)c(Cl)c1
- survivor count [6]: 3 of 6
- survivor count [7]: 1 of 6

SMILES: O=C(Cl)C1CCC1C(=O)Cl (stereo not drawn)
- survivor count (dose: 300.0 mg/kg/injection, schedule: Q01DX001 (ip), vehicle: carboxymethylcellulose (CMC)): 3 of 6

SMILES: CCCCCCNC(=O)c1ccc(C(=O)NCCCCCC)cc1
- survivor count [2]: 6 of 6

SMILES: C(CC1CCNCC1)CC1CCNCC1
- survivor count (dose: 100.0 mg/kg/injection, schedule: Q01DX Z (ip), vehicle: saline): 0 of 6
- survivor count (dose: 100.0 mg/kg/injection, schedule: Q04DX003 (ip), vehicle: saline with Tween-80): 0 of 3
- survivor count [6]: 0 of 3
- survivor count [1]: 0 of 6
- survivor count [7]: 0 of 3

SMILES: CCCCN=C=S
- survivor count (dose: 400.0 mg/kg/injection, schedule: Q04DX002 (ip), vehicle: saline with Tween-80): 1 of 3

SMILES: O=C(O)c1cc(C(=O)O)c(C(=O)O)cc1C(=O)O (tested in a mixture with another compound)
- survivor count [8]: 0 of 4
- survivor count [4]: 0 of 4

SMILES: O/C=C(\Cl)CCl
- T/C (dose: 100.0 mg/kg/injection, schedule: Q04DX002 (ip), vehicle: saline): 100, 103, 104, 113 % of control
- survivor count [8]: 2 of 6
- survivor count [9]: 1 of 6 and 1 of 3
- survivor count (dose: 200.0 mg/kg/injection, schedule: Q04DX002 (ip), vehicle: saline): 0 of 3, 1 of 6, 1 of 3, 3 of 6
- survivor count (dose: 200.0 mg/kg/injection, schedule: Q04DX003 (ip), vehicle: saline): 2 of 6
- survivor count (dose: 400.0 mg/kg/injection, schedule: Q04DX002 (ip), vehicle: saline): 0 of 3 and 0 of 6

SMILES: CSc1nc2ccccc2s1
- survivor count [3]: 1 of 6

SMILES: C=CCC1(CCCC)C(=O)NC(=O)NC1=O
- survivor count (dose: 300.0 mg/kg/injection, schedule: Q01DX001 (ip), vehicle: saline): 1 of 6

SMILES: O=[N+]([O-])c1ccc(S(=O)C2CCCCC2Cl)c([N+](=O)[O-])c1 (stereo not drawn)
- survivor count [2]: 2 of 6
- survivor count [3]: 0 of 6

SMILES: ClCC#Cc1ccccc1
- survivor count (dose: 100.0 mg/kg/injection, schedule: Q01DX009 (ip), vehicle: saline): 0 of 6
- survivor count [9]: 0 of 6
- survivor count [5]: 2 of 6
